Results from the supplement of paper PMC3334620.
In all, about 33,000 sequences were measured (“E-score (-0.5 to 0.5)”: median about -0.016, highest 2% from about 0.3 on). The list shows a part of the results.

target: T1, Yer184c (UniProt P39961); assay: PBM E-score (8-mer binding enrichment) (E-score (-0.5 to 0.5)); higher = stronger / more preferred TF binding; details: protein concentration: 100 nM; construct: GST-full length
T1 sequence: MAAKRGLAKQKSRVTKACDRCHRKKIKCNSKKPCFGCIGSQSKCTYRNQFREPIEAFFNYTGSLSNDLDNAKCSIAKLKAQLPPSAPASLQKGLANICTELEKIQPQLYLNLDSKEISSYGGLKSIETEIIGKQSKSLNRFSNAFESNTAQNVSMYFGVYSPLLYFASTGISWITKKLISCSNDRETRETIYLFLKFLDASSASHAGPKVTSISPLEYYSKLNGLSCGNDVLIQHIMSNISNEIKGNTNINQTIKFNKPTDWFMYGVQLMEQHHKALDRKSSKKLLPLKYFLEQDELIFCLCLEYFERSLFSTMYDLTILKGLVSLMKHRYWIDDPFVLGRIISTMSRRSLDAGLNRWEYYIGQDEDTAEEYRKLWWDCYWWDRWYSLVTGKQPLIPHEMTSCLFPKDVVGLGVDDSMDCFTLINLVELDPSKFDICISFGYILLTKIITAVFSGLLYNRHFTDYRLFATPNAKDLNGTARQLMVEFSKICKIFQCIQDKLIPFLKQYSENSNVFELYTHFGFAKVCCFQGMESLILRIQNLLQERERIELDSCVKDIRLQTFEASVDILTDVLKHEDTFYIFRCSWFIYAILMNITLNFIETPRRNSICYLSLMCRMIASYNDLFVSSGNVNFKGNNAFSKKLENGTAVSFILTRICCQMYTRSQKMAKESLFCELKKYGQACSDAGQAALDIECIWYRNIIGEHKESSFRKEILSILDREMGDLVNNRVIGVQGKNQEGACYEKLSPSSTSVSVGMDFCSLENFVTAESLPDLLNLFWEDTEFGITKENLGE
Description: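 Universal 'all 10-mer' protein binding microarrays (Agilent AMADID 015681) probed with GST-tagged S. cerevisiae TFs (full-length or DBD) made by in vitro transcription/translation (PURExpress), about 100-200 nM. Bound TF was detected with fluorescent anti-GST. Each ungapped 8-mer (which stands for itself and its reverse complement) is scored by the PBM enrichment score (E-score), a modified Wilcoxon-Mann-Whitney statistic from -0.5 to +0.5, computed with the Universal PBM Analysis Suite. Scale: above 0.35 generally sequence-specific binding.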

Row | Sequence | PBM E-score
1 | AGAGCGGA | 0.0727
2 | AATCACCT | 0.0242
3 | AAGGACTT | -0.131
4 | ATCTCATC | -0.163
5 | AGCCTCAT | -0.146
6 | CGAACCCA | -0.0147
7 | AAACTCTC | 0.169
8 | CATGGTTA | 0.0706
9 | CTGTACGA | -0.0324
10 | AGTGTGAG | -0.0574
11 | CAAATCCA | -0.0241
12 | CGCCACCG | -0.156
13 | CCTGGGAA | -0.0199
14 | ACGGTCAA | 0.0577
15 | CCGATTCG | 0.358
16 | CATTACGA | -0.206
17 | AACGATAA | 0.0408
18 | ATAACCCG | -0.00825
19 | CCTGATCA | -0.234
20 | AAAGGATC | 0.0245
21 | CGTCATCC | -0.138
22 | AGCAGAGC | -0.00172
23 | AGGACGTC | -0.12
24 | ATAAAGGG | -0.102
25 | GCCTTGCA | -0.148

Row | Sequence | PBM E-score
26 | ACAATGCC | -0.171
27 | CCTCTAAA | -0.235
28 | AGCATCTC | -0.205
29 | GCACAAAA | 0.272
30 | ACCCTCTC | -0.312
31 | CACCATCG | -0.286
32 | GTCCCTAA | -0.158
33 | CTCGCAAA | -0.158
34 | GACTGTAC | -0.171
35 | ATTGCGCG | 0.183
36 | GGAAGCAA | -0.0564
37 | GACACGGC | 0.1
38 | ATCATTTA | 0.188
39 | CATAAGGC | -0.00543
40 | ACCTAATC | 0.168
41 | AAAGATAT | 0.0801
42 | ATGTGGAG | 0.00063
43 | GAATGCCC | -0.238
44 | TCGCAGCA | -0.0737
45 | CCAGATTC | -0.167
46 | CACGCCCG | 0.13
47 | GAAACATC | -0.00669
48 | CATCCGTC | -0.0104
49 | AGATTGCC | 0.00777
50 | CGACAATA | 0.213

Row | Sequence | PBM E-score
51 | TCGCATAA | 0.146
52 | GTGATACA | 0.0287
53 | ATGCCTGA | -0.108
54 | ATTAGCCC | -0.0368
55 | CTCCCAAG | -0.0182
56 | GTCCTTCA | 0.0902
57 | AATACAGT | 0.0667
58 | CTCACGTA | -0.112
59 | CGAACGTC | -0.0167
60 | AAAGGGTT | -0.104
61 | AAGTTTAA | 0.0658
62 | GACCTGCA | -0.23
63 | ACATACAA | 0.0459
64 | AAACCCTG | -0.06
65 | CCCCAGCG | -0.297
66 | CACTCGGG | 0.0303
67 | TACCCCAA | -0.211
68 | AAAATTAG | 0.227
69 | AGGTGCTG | -0.0532
70 | CATACAAA | 0.251
71 | AACGAGAC | -0.0699
72 | CTCTAATA | 0.116
73 | ACCTCGTG | 0.0639
74 | AACAGCCA | 0.0707
75 | AAACTGAA | 0.18

Row | Sequence | PBM E-score
76 | ACGACCGG | 0.0371
77 | AAGGGTTC | -0.192
78 | ACTTATTG | -0.0498
79 | ATTATGTG | 0.0515
80 | ATGTCGTC | -0.195
81 | ACTTCGCC | 0.0925
82 | AAGGATAC | -0.0139
83 | CGAGTTCA | 0.0543
84 | GGGCCTAA | -0.096
85 | CCTTTACA | -0.0847
86 | CCACGATA | 0.0573
87 | CTGACCAG | -0.0878
88 | ATAGACGG | 0.0173
89 | AGCGAGAG | 0.0132
90 | AGTAGAGG | -0.25
91 | TAACTGTA | -0.0459
92 | GCCACGAC | -0.0252
93 | AGTTACGC | -0.0915
94 | ATTGGAAC | 0.167
95 | AATGACCT | -0.0871
96 | CCATGGAA | -0.0496
97 | GTGTGGAA | 0.0192
98 | CTCTGTTA | -0.0157
99 | CTACATCA | -0.0855
100 | TAGTATCA | 0.279

Row | Sequence | PBM E-score
101 | GAAAGGAA | 0.124
102 | AGGTGATG | -0.253
103 | GCACTGTA | 0.112
104 | CGCTTCAC | -0.0514
105 | GGGGAACA | -0.17
106 | ATACCCGA | 0.111
107 | AGAGTAGG | -0.0378
108 | ACTCTTGC | 0.0195
109 | CGACCCAA | -0.00796
110 | GAATTGTC | -0.0406
111 | ATCTGAGG | -0.076
112 | CTCCCGCC | 0.0349
113 | ACGTTCTC | 0.022
114 | AGCAGAGG | -0.202
115 | GTGGTTTA | -0.0674
116 | CAGAGCGA | 0.205
117 | TTATTCAA | 0.3
118 | AGGGGCGA | -0.351
119 | CCTCGCAA | -0.166
120 | GCGCGCCA | 0.145
121 | ACATCTAA | 0.00363
122 | AACCCTCG | -0.0517
123 | AGTCAAAT | -0.0729
124 | ATGATAGG | -0.0453
125 | AGGGTCCA | -0.124

Row | Sequence | PBM E-score
126 | GCATACGC | -0.0872
127 | AGCAGTAA | -0.0259
128 | AGGAAACG | -0.107
129 | CCCGTAAC | 0.0683
130 | TGAGGCAA | -0.0663
131 | ACTCTATG | -0.164
132 | ACGGTCAG | -0.0874
133 | CTCCGGAG | 0.416
134 | ACATTGAG | -0.0299
135 | GACTTAGA | -0.081
136 | TTACATAA | 0.141
137 | CACCCTTC | -0.218
138 | CAACAAAA | 0.251
139 | CAGTTACG | -0.14
140 | TCCAGAAA | -0.0281
141 | ATGCTATC | -0.0729
142 | CTAAGTGA | 0.0817
143 | ACTGTGAA | 0.14
144 | GGTGAGAA | 0.141
145 | CACTTGCA | -0.0519
146 | CAAGGCGA | -0.184
147 | ACTCGATC | -0.00141
148 | ACCGGCAA | 0.222
149 | GACGACAC | -0.0847
150 | CAGATGAA | -0.0856

Row | Sequence | PBM E-score
151 | AACAGCCG | 0.107
152 | ACAGCATA | 0.078
153 | AGTTTACC | 0.136
154 | CCTAGGCC | -0.229
155 | CAAAGGGG | -0.23
156 | AGATTCAG | 0.0599
157 | AGCCAGCG | -0.221
158 | CGGAGTGA | 0.153
159 | ACTCTCCT | -0.169
160 | AATGTCAG | -0.0883
161 | CAAAGATC | 0.154
162 | ACTCTCTA | -0.166
163 | GCCGACGC | 0.18
164 | ATGCATCA | 0.302
165 | AAACGCCC | -0.106
166 | CACAACTC | 0.0365
167 | CAAACAAG | 0.0388
168 | GCATCTCA | 0.0266
169 | ATACAAGG | 0.0668
170 | CTTTATCA | 0.142
171 | GCAGCGCA | -0.187
172 | ACTTAACA | -0.00053

Some values from the list:
For PBM E-score, ACAGCATA is entered as 0.078
For PBM E-score, CACAACTC is entered as 0.0365
For PBM E-score, AGCCAGCG is entered as -0.221
For PBM E-score, CAAAGGGG is entered as -0.23
For PBM E-score, CTTTATCA is entered as 0.142
For PBM E-score, ACTCTCTA is entered as -0.166
